These are yes or no findings as the source states them, for the method shown. For some of these results: In cells and extracts the contact can be indirect. Some entries that bind do so weakly or less than the wild type. Blank lines part the entries; values can stand above or below the substance they belong to.
Tests used:
[1] = target: p65 subunit of NF-κB expressed from pCMV-p65 (Homo sapiens (Human)) (UniProt Q04206); experiment: p65 EMSA supershift with anti-HA antibody, nuclear extracts of transfected, LPS-stimulated BV-2 cells (FIG. 3D)
[2] = target: p65 subunit of NF-κB expressed from pCMV-p65 (Homo sapiens (Human)) (UniProt Q04206); experiment: anti-HA magnetic bead co-immunoprecipitation from co-transfected BV-2 cells (FIG. 10A)
[3] = target: p65 subunit of NF-κB expressed from pCMV-p65 (Homo sapiens (Human)) (UniProt Q04206); experiment: anti-HA co-immunoprecipitation from co-transfected BV-2 cells, p65 immunoblot
[4] = target: p65 subunit of NF-κB expressed from pCMV-p65 (Homo sapiens (Human)) (UniProt Q04206); experiment: co-immunoprecipitation with TDP-43 antibody from transfected BV-2 lysates, treated with proteinase K, RNase or DNase 1 (FIG. 4D)
[5] = target: p65 subunit of NF-κB expressed from pCMV-p65 (Homo sapiens (Human)) (UniProt Q04206); experiment: co-immunoprecipitation from transfected BV-2 cells
[6] = target: p65 subunit of NF-κB expressed from pCMV-p65 (Homo sapiens (Human)) (UniProt Q04206); experiment: anti-HA co-immunoprecipitation from transfected BV-2 cells, p65 immunoblot
[7] = target: p65 subunit of NF-κB expressed from pCMV-p65 (Homo sapiens (Human)) (UniProt Q04206); experiment: anti-HA co-immunoprecipitation from transfected BV-2 cells, p65 immunoblot (FIG. 4B)
[8] = target: endogenous mouse p65 NF-κB (mouse spinal cord or BV-2 cells) (mouse) (UniProt Q04207); experiment: co-immunoprecipitation with polyclonal anti-TDP-43 from transgenic mouse spinal cord, p65 immunoblot
[9] = target: endogenous mouse p65 NF-κB (mouse spinal cord or BV-2 cells) (mouse) (UniProt Q04207); experiment: co-immunoprecipitation with polyclonal anti-TDP-43 from spinal cord of TDP-43^wt transgenic mice (FIG. 1A)

The chains behind the UniProt entries cited, without tags or fusion partners. Where a name states a change or a piece, a line headed by the entry shows the natural chain unless it says otherwise.
UniProt Q04206: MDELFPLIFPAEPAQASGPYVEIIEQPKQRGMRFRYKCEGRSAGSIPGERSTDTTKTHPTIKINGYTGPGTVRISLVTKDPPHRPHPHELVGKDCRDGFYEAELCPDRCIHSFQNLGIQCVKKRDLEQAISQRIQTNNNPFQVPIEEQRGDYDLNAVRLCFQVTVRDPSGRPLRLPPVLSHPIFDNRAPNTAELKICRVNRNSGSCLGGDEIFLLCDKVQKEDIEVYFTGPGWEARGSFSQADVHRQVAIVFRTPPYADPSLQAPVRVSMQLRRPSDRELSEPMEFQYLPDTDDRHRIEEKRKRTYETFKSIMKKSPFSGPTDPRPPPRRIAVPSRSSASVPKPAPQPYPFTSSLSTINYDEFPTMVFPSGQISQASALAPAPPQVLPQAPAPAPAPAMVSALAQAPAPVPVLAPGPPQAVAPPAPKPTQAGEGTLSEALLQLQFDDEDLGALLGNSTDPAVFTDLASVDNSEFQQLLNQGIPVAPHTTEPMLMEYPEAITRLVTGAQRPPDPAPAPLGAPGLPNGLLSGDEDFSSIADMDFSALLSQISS
UniProt Q04207: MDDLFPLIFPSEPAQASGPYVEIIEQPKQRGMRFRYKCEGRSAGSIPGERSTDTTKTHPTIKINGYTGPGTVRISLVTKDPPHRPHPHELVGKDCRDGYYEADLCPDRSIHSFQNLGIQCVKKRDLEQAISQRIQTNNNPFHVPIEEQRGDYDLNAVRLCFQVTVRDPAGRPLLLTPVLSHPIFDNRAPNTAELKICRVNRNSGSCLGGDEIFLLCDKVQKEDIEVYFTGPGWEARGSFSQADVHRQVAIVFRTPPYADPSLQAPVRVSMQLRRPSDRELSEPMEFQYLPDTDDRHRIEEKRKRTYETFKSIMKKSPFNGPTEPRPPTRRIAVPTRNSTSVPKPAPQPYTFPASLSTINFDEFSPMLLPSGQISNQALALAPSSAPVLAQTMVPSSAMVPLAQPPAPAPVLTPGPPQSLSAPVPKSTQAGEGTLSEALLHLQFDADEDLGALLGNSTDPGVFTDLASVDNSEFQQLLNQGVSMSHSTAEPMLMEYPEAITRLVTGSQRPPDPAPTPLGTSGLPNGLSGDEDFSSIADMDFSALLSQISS

Substance: TDP-43^wt, HA-tagged, expressed from pCMV-TDP43^wt in BV-2 cells (from UniProt Q13148 1-414)
binding [1]: binds
binding [2]: binds
binding [3]: binds
binding [4]: binds

binding [5]: binds
Substance: TDP-43^ΔNR1-50 (51-81 and 98-176 AAs), N-terminal and RRM-1 deletion mutant with the NLS signal attached (from UniProt Q13148 1-414)

binding [5]: binds
Substance: TDP-43^ΔNR1-81 (98-176AAs), N-terminal and RRM-1 deletion mutant with the NLS signal attached (from UniProt Q13148 1-414)

Substance: TDP-43^ΔRRM-2 (191-262AAs), HA-tagged deletion mutant (from UniProt Q13148 1-414)
binding [6]: binds
binding [7]: binds

binding [8]: binds
binding [9]: binds
Substance: human TDP-43 (untagged; TDP-43^wt transgene product in mouse spinal cord, or endogenous TDP-43 in human spinal cord) (from UniProt Q13148 1-414)

Reference: patent US20160091504A1
